# Results published in paper doi:10.1101/2023.07.11.548599.
# The chains behind the UniProt entries cited, without tags or fusion partners. Where a name states a change or a piece, a line headed by the entry shows the natural chain unless it says otherwise.
# UniProt Q9U9Q1: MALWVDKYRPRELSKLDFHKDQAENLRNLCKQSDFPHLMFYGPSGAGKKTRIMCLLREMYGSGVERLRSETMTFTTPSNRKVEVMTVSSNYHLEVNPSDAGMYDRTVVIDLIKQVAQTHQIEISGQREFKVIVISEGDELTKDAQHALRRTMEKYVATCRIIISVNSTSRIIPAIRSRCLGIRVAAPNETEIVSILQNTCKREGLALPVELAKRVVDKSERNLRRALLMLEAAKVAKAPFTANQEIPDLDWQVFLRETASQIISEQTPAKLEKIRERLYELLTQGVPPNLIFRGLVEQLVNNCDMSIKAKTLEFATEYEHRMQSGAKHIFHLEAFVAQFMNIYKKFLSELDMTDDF
# UniProt P45975: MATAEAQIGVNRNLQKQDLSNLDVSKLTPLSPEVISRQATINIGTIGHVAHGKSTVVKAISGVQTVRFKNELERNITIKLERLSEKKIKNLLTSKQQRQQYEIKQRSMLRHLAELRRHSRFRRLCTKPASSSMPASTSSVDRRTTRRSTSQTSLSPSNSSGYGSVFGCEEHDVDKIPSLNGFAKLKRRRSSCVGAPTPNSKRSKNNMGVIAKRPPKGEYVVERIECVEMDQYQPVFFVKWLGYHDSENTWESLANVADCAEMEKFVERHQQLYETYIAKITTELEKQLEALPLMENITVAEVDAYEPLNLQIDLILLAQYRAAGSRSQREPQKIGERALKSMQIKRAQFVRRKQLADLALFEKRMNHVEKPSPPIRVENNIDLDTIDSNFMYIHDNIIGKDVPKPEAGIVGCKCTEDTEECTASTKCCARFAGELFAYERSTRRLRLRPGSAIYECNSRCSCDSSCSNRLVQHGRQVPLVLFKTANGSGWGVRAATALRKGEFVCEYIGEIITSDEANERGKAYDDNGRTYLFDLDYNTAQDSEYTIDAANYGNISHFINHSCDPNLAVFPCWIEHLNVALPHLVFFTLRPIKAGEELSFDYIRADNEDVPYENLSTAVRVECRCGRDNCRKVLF
# UniProt Q9W3W6: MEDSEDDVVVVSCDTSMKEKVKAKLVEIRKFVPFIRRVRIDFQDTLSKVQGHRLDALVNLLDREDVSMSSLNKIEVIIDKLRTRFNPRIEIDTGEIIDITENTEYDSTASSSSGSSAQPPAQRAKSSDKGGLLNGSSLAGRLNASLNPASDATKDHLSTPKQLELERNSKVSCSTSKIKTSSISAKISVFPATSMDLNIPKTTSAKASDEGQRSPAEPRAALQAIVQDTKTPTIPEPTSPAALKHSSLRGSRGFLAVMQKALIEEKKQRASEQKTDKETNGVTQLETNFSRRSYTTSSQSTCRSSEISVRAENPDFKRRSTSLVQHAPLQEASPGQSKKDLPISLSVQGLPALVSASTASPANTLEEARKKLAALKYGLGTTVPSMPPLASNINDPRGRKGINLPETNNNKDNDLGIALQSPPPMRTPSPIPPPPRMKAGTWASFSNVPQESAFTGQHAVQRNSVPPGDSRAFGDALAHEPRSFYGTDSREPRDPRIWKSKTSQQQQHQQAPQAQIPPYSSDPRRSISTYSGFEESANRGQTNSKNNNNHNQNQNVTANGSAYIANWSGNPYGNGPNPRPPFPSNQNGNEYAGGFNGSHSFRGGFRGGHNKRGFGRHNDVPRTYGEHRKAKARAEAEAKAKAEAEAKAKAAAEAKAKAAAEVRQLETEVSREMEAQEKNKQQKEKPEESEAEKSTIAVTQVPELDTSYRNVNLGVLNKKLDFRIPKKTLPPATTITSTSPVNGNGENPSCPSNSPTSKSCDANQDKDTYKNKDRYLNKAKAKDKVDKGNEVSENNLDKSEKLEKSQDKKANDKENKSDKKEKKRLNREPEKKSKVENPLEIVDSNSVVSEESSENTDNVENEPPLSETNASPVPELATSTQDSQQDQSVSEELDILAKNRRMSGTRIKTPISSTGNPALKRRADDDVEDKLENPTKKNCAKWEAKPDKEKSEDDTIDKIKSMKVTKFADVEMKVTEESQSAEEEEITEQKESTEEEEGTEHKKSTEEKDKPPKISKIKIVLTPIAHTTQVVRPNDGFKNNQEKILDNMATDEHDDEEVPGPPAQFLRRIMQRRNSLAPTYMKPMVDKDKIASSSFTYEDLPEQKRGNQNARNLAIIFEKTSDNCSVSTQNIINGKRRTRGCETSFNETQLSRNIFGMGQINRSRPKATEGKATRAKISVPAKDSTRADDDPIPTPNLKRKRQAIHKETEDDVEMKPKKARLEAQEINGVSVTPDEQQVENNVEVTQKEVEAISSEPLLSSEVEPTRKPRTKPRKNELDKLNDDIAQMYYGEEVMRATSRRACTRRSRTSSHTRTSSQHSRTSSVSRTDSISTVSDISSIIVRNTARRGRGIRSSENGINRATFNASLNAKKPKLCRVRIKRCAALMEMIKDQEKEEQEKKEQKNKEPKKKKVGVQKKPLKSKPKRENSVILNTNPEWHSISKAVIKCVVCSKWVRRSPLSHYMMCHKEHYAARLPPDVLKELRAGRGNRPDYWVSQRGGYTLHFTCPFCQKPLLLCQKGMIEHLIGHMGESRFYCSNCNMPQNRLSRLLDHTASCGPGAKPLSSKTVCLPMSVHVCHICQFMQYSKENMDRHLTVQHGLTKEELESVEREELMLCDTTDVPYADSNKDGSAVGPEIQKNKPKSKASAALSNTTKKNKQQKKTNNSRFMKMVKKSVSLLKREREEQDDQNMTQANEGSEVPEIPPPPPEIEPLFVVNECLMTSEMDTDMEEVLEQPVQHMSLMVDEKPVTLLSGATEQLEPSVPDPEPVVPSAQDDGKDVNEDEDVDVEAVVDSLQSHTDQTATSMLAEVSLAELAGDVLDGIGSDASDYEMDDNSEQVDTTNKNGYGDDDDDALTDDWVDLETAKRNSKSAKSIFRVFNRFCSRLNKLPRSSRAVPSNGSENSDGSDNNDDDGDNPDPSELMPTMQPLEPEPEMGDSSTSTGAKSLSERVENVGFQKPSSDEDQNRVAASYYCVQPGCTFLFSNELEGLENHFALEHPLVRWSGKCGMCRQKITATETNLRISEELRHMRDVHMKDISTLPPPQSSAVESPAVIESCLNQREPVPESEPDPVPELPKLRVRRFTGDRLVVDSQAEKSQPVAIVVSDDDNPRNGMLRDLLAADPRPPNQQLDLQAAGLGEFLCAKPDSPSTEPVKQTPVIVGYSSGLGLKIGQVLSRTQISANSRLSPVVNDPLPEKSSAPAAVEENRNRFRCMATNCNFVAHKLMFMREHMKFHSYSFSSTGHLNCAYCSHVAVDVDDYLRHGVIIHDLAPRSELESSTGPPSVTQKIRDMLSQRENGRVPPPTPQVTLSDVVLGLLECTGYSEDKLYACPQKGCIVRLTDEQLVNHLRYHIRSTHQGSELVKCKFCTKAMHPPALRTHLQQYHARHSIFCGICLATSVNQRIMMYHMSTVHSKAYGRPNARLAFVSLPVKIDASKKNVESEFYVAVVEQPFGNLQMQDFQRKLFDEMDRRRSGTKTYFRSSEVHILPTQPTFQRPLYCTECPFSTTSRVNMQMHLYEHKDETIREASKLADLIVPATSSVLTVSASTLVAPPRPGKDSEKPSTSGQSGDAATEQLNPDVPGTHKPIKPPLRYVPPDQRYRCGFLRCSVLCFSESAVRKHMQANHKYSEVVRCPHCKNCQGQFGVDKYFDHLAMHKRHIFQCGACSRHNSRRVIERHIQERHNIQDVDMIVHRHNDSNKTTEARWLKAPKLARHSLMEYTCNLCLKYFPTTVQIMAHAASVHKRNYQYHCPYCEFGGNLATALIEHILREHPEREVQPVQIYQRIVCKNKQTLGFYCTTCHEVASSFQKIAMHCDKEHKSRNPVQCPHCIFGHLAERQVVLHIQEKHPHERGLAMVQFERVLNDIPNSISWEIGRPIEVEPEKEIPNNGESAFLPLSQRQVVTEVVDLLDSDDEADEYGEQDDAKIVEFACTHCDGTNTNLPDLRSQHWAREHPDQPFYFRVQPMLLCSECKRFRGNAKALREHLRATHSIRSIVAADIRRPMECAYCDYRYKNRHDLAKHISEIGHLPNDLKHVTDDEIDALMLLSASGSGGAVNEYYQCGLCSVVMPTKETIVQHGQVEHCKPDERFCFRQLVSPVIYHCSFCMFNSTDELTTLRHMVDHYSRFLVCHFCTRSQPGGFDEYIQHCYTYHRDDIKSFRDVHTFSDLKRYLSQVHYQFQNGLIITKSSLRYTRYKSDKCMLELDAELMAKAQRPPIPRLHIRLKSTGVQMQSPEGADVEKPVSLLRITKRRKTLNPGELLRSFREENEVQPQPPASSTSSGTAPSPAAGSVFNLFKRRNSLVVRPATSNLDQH
# UniProt A1ZBF8: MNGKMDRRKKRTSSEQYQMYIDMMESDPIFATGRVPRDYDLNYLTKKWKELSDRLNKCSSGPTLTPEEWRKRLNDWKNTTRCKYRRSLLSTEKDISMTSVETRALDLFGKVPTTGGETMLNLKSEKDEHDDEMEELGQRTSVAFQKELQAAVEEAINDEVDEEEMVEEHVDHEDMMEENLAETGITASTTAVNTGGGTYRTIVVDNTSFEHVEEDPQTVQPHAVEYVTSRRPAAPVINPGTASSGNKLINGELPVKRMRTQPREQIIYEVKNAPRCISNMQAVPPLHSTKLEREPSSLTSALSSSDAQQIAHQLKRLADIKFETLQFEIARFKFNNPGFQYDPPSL
# T1: GFP-D1 (D. melanogaster) (UniProt P22058)
# T1 sequence: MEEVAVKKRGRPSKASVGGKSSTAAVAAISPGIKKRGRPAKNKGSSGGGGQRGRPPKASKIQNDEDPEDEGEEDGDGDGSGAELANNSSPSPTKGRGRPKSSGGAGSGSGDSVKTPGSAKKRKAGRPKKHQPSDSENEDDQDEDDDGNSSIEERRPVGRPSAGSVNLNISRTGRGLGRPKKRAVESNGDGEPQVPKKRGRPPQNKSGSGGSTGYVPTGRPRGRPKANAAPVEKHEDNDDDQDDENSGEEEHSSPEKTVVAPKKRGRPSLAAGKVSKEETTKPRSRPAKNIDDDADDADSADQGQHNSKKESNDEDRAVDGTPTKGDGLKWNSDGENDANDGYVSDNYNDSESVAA
# B1: Mes-4 (protein, UniProt Q8MT36 1-1427)
# chain: MKLSTDAHSEIEGDAAHGNVLCNSASDSLTATDEVAAGNDESVATEGDDVEIPRDTNNSTPVRLLDKPGQNPVQNGAQPAAEESELESQRQTPVQKQQQQRVSMVNRKRDLINLQSALSPKYIGYANANSPTPLSDSDDTIRTTRRRVNQAAALNNSSAGETLAHDNASPRTPGGGGGGGGDDSANQLLSKTYMSPIEKLLIKNGASSPNSTGFEAGSEDLGIRPIVRKHVKRKMKRVPKAKVTLELDEKNQQEVDEKSVKTEPIDEEVDRTDEAPTQEAQTTAISIKSETEAEHKAAVDVHIKQEDTIRLDIVNNPVESTSIVITEEPKDLEKSTEELAFALPLASSTEVDLKSPPDLSSTALATSIKSPSSVSIDSAKGLSIVTDPGWPTYQVGDLFWGKVFSYCFWPCMVCPDPLGQIVGNMPSHPQRSSLDNANVPIQVHVRFFADNGRRNWIKPENLLTFAGLKAFDDMREELRIKHGPKSAKYRQMVPKRTKVVIWRQAIEEAQAMTQIPYSDRLEKFYQTYENVVTLNRQKRKRTKYMMQDTSDVGSSLYDSTDNLHNKQGTQLLAVKRERSESPFSPAFSPVKSKNEKRAKRRKLSNGTEADTGSNSMAVTPSQTETTVDSSAYENPEFRQLLSAVMEYVMMNRSDEKVEKVLLSVVSNIWSLKQIQLRELERDLASGEIEEPLGSSVVGRGSGVGTIKRLSNRLMTMMVRRSMTPVVTPSTTPAPSEPDRRLSEPPKTKKPVNRPIEEVIEDILQLDSKYLFRGLSREPICKYCYQAGSDLVRCSRTCSSWLHADCLERKVTGAPMPKIGSRKALVIPPTSKSPSPDEDHVTADAKEVVAVGTSLVCHECNVGEPEGCVICHQVESPAVPSTPRKEDSSSHTPIEDKLLTCSQPMCGKRFHTSCCKYWPQASSSKHSARCPRHVCHTCVSDDPSGKFQQLGSSKLAKCVRCPATYHQLSKCIPAGTQMLNTTNIICPRHNIAKADAHVNVLWCYICVKGGELVCCETCPIAVHAHCRNIPIKTNESYICEECESGRLPLYGEIVWAKFNNFRWWPAIILPPTEVPSNILKKAHGENDFVVRFFGTHDHGWISRRRVYLYIEGDTGDGHKTKSQLFRNYTTGVEEASRFLPIIKARRQEQDMERQSGNKLHPPPYVKIKTNKAVPPLRFSQNLEDLSTCNCLPVDEHPCGPEAGCLNRMLFNECNPEYCKAGSLCENRMFEQRKSPRLEVVYMNERGFGLVNREPIAVGDFVIEYVGEVINHAEFQRRMEQKQRDRDENYYFLGVEKDFIIDAGPKGNLARFMNHSCEPNCETQKWTVNCIHRVGIFAIKDIPVNSELTFNYLWDDLMNNSKKACFCGAKRCSGEIGGKLKDDAVKAHAKLKQMRRAKASAVRIHVKPKKTPKVKHISADDEPMDAKDE
# B2: borr (protein, UniProt Q9VLD6 1-315)
# chain: MPRTKIPKNSKRNREVANREEKVRLYELKMDSRLISIDSLETKFLSAVDHQVKTLLGQVQKELANLKMPEVLRLFEELDRFSDFKASDQTQLLASMSMSGSAIEGHAPSATGSRNDEEDSSIGASGGSILAAHTGSLLRSTKAMRTPGPLHSARARRARRSRSACGDLNILHSAKPPSISSSSSSSRNSRSKLRTPMASRAKAFSADRTPLKQKQMRSGSPTTPPMAFLRYPKPGEVALSKYGSPMVAQVMPDKFANVNIPIRNGVLSLRPKKLDADEVESNLLENLDEDTLNQIKTLHENLQMIVNKASQAVFK
# B3: Smn (protein, UniProt Q9VV74 1-226)
# chain: MSDETNAAVWDDSLLVKTYDESVGLAREALARRLADSTNKREEENAAAAEEEAGEISATGGATSPEPVSFKVGDYARATYVDGVDYEGAVVSINEEKGTCVLRYLGYENEQEVLLVDLLPSWGKRVRREQFLIAKKDEDEQLSRPKASAGSHSKTPKSSRRSRISGGLVMPPMPPVPPMIVGQGDGAEQDFVAMLTAWYMSGYYTGLYQGKKEASTTSGKKKTPKK
# B4: ball (protein, UniProt Q7KRY6 1-599)
# chain: MPRVAKPKAAAPAKKVVSAKKAKSKLYKMPEKVKEGTVFTDLAKGQWRIGPSIGVGGFGEIYAACKVGEKNYDAVVKCEPHGNGPLFVEMHFYLRNAKLEDIKQFMQKHGLKSLGMPYILANGSVEVNGEKHRFIVMPRYGSDLTKFLEQNGKRLPEGTVYRLAIQMLDVYQYMHSNGYVHADLKAANILLGLEKGGAAQAYLVDFGLASHFVTGDFKPDPKKMHNGTIEYTSRDAHLGVPTRRADLEILGYNLIEWLGAELPWVTQKLLAVPPKVQKAKEAFMDNIGESLKTLFPKGVPPPIGDFMKYVSKLTHNQEPDYDKCRSWFSSALKQLKIPNNGDLDFKMKPQTSSNNNLSPPGTSKAATARKAKKIDSPVLNSSLDEKISASEDDEEEEEKSHRKKTAKKVTPSARNAKVSPLKRVADSSPPSQKRVKTEPKSTPRERATPKASPKPRSTPKASPKPQTPTAARLRTPNAKINFSPSISLRGRPGGKTVINDDLTPQPRSKKTYEFNFELDVSMDANVIVNVKRKKKADQDKATAVDSRTPSSRSALASSSKEEASPVTRVNLRKVNGHGDSSTPGRSPRTPAVTVRKYQG
# B5: Top2 (protein, UniProt P15348 1-1447)
# chain: MENGNKALSIEQMYQKKSQLEHILLRPDSYIGSVEFTKELMWVYDNSQNRMVQKEISFVPGLYKIFDEILVNAADNKQRDKSMNTIKIDIDPERNMVSVWNNGQGIPVTMHKEQKMYVPTMIFGHLLTSSNYNDDEKKVTGGRNGYGAKLCNIFSTSFTVETATREYKKSFKQTWGNNMGKASDVQIKDFNGTDYTRITFSPDLAKFKMDRLDEDIVALMSRRAYDVAASSKGVSVFLNGNKLGVRNFKDYIDLHIKNTDDDSGPPIKIVHEVANERWEVACCPSDRGFQQVSFVNSIATYKGGRHVDHVVDNLIKQLLEVLKKKNKGGINIKPFQVRNHLWVFVNCLIENPTFDSQTKENMTLQQKGFGSKCTLSEKFINNMSKSGIVESVLAWAKFKAQNDIAKTGGRKSSKIKGIPKLEDANEAGGKNSIKCTLILTEGDSAKSLAVSGLGVIGRDLYGVFPLRGKLLNVREANFKQLSENAEINNLCKIIGLQYKKKYLTEDDLKTLRYGKVMIMTDQDQDGSHIKGLLINFIHTNWPELLRLPFLEEFITPIVKATKKNEELSFYSLPEFEEWKNDTANHHTYNIKYYKGLGTSTSKEAKEYFQDMDRHRILFKYDGSVDDESIVMAFSKKHIESRKVWLTNHMDEVKRRKELGLPERYLYTKGTKSITYADFINLELVLFSNADNERSIPSLVDGLKPGQRKVMFTCFKRNDKREVKVAQLSGSVAEMSAYHHGEVSLQMTIVNLAQNFVGANNINLLEPRGQFGTRLSGGKDCASARYIFTIMSPLTRLIYHPLDDPLLDYQVDDGQKIEPLWYLPIIPMVLVNGAEGIGTGWSTKISNYNPREIMKNLRKMINGQEPSVMHPWYKNFLGRMEYVSDGRYIQTGNIQILSGNRLEISELPVGVWTQNYKENVLEPLSNGTEKVKGIISEYREYHTDTTVRFVISFAPGEFERIHAEEGGFYRVFKLTTTLSTNQMHAFDQNNCLRRFPTAIDILKEYYKLRREYYARRRDFLVGQLTAQADRLSDQARFILEKCEKKLVVENKQRKAMCDELLKRGYRPDPVKEWQRRIKMEDAEQADEEDEEEEEAAPSVSSKAKKEKEVDPEKAFKKLTDVKKFDYLLGMSMWMLTEEKKNELLKQRDTKLSELESLRKKTPEMLWLDDLDALESKLNEVEEKERAEEQGINLKTAKALKGQKSASAKGRKVKSMGGGAGAGDVFPDPDGEPVEFKITEEIIKKMAAAAKVAQAAKEPKKPKEPKEPKVKKEPKGKQIKAEPDASGDEVDEFDAMVEGGSKTSPKAKKAVVKKEPGEKKPRQKKENGGGLKQSKIDFSKAKAKKSDDDVEEVTPRAERPGRRQASKKIDYSSLFSDEEEDGGNVGSDDDGNASDDDSPKRPAKRGREDESSGGAKKKAPPKKRRAVIESDDDDIEIDEDDDDDSDFNC
# B6: mei-S332 (protein, UniProt Q24141 1-401)
# chain: MGSKVEQQYKLLNAELMDQVQKQRLEIGEYRKRVISLEREIMDIREEHVLQNHRQRMENISIVRSLMLSLNVDSDSLAVRQEPAPAAQINRPSGPRRSSREICKDMRRTCALARTTRPISPRRSSSVTSTVSSTSRRSSAEVQSEVVTTRIPEDRRANKPTPPPRRPAELVFDEDDSDDDFDEAVSPVEETQTEQNEENNRLFSIIEENGSEGESTDSSSSCEAIYCDTTFESSPPNAQVTVTPSGRALREVDTNIPVAVSLSRGKETGKGSWLAISVAVEDSPQEPSIQCPRLAVTRPSQSSGIFPDVNGLTPRRSLFNGIGKMAGSTSTPKSFLVEEMPSIRTRSRTAANKKSENTDMSSSFCNNSARPSRSCRPTSLVEPSLKNKLRNGSKGKAKAKK
# B7: bocks (protein, UniProt Q709R6 1-399)
# chain: MSDLSYLDTLGNKELLAKCLEHGLPGVPVTDSTRSVIIRRLKAKITGVPLNKSKSASKKAIPRRETVHGSQVTTPTSEPVRRTPGKSAGRTSSNNNKISEQSRRTIAYGLDNTSISGRSVQTTTTVSDMSSQSEDDDSYMVDSPVPNYSKDQQPRRYVSLAKSGVLTTSYTREVDQPLYEQEDIPRSYTYERPHVPAATLHALPTYEPRIEPSTYRPTDLGFSRPLLTQTNLNSTSYEESSTYNPKLSPISPRNTFSGSARPFGGPAPAPAPIRQRQSVPVSGSNLARGRLLQPTTAVNTLYPQLNEFYDQPNDAGEPMETESESEVEEVPINSHFQKNRFSPLARKPLVRHHDQVSPMAQFRALAVSLDQKYNLKFYLILVVSVMLATMVYVVLTPNA
# Biological target: T1, GFP-D1 (D. melanogaster)
# Assay: affinity purification with mass spectrometry
row,binding,Molecule
1,binds,ADD1 (D. melanogaster (endogenous in embryos))
2,binds,HP5 (D. melanogaster (endogenous in embryos))
3,binds,Hybrid male rescue (Hmr) (D. melanogaster (endogenous in embryos))
4,binds,Incenp (D. melanogaster (endogenous in embryos))
5,binds,Parp (D. melanogaster (endogenous in embryos))
6,binds,RfC38 (from UniProt Q9U9Q1)
7,binds,Su(var)3-9 (from UniProt P45975 1-635)
8,binds,small ovary (Sov) (from UniProt Q9W3W6)
9,binds,B1
10,binds,B2
11,binds,B3
12,binds,B4
13,binds,B5
14,binds,B6

row,Molecule,binding
1,Lethal hybrid rescue (Lhr) (D. melanogaster (endogenous in embryos)),binds

# Biological target: GFP-Prod (D. melanogaster) (UniProt A1ZBF8)
# Assay: affinity purification with mass spectrometry
row,binding,Molecule
1,binds,B7

# No constants are given. Whether binding was seen depends on the method and setting. In cells and extracts the contact can be indirect. These calls come from enrichment with a bait or labelling near it, and not all partners need be listed. For some of these results: Where a sequence is shown, tags or fusion partners need not be part of it.
